Entries after “also recorded” stand apart in the source; their conditions may differ. At least one structure is not confirmed: it was looked up by name or label, or the drawing left a doubt.
Key:
Type in all cases: cell-based, human
HAP1 cells = assay: DSBR-seq of a Cas9 break at the AAVS1 locus, HAP1 cells
From the text: In this Example, transfection of the pX330 plasmid, containing the Cas9 and guide RNA (gRNA) expression cassettes to the AAVS1 safe locus, is used. Genomic DNA (gDNA) is collected 3 days post-transfection. To asses—DNA repair by HR, a donor template containing three substitutions around the protospacer adjacent motif (PAM) which limits cut-recut cycles is transfected also. A 500 bp amplicon surrounding the break is used for rapid measurement of DSBR errors via the widely used T7 endonuclease I assay. A 201 bp amplicon surrounding the cut site, but outside of the HR template is amplified, purified via E-gel electrophoresis system, converted into Illumina sequencing libraries, quantified via qPCR, and then sequenced at 200,000× read depth using paired end 150 bp (PE150) Mi-Seq. Unique, nonsingleton reads (occurring more than once) are aligned to the reference sequence using pairwise alignment (for example using Python). The indels and substitutions are cataloged relative to the break site and microhomology (MH) is determined (for example using an internally developed and validated algorithm, see FIG. 8). The reads are categorized as consequences of NHEJ (≤5 bp deletion) or MMEJ (>5 bp deletion with >2 bp MH). The donor template DNA contains key substitutions—thereby providing a readout of HR. These experiments are also performed in cells that are isogenic knockout controls of key NHEJ, MMEJ and HR components and using pharmacologic controls in which DNA-PKcs, RAD51, and PARP are inhibited […]. By comparing the experimental reads against those obtained from the knockout controls and/or pharmacologic controls, the specific reads dependent on each pathway were discovered. (FIG. 1). Thus, these methods involve empirically-determined deletion profiles, derived from known controls deficient in each pathway, as signatures to clearly separate and quantify DSBR events occurring by HR, NHEJ and MMEJ. The single double strand break allows for direct analysis of pathway choice in a native genomic location with a blunt-ended DSB. Because both cell cycle dependent pathways (MMEJ and […]) are measured in the same experiment, there is an effective built-in control for confounding cell cycle effects on the use of these pathways. The AAVS1 genomic location was chosen due to its characterization as a safe site of integration without any known phenotypic effects. Transfection of the pX330 plasmid, containing the Cas9 and gRNA expression cassettes, is performed by nucleofection or liposome-based techniques. To detect DNA repair by homologous recombination (HR), a donor template is used containing three substitutions, one on the gRNA side of the break and two on the other side of the break, destroying the protospacer adjacent motif (PAM) and thereby limiting cut-recut cycles. A 500 bp amplicon surrounding the break is used for rapid measurement of DSBR errors via the widely used T7 endonuclease I assay. A 201 bp amplicon surrounding the cut site, but outside of the HR template is amplified, purified via E-gel electrophoresis system, converted into Illumina sequencing libraries, quantified via qPCR, and then sequenced at 200,000× read depth. Paired end 150 bp (PE150) reads are obtained, affording a central 100 bp region of high sequence fidelity adjacent to the cut site. The PE150 reads are merged using PEAR and then condensed into a set of unique reads. Unique reads that only occur once are discarded, as they are likely low-quality reads due to sequencing error. These unique, nonsingleton reads are aligned to the reference sequence using pairwise alignment through Python. The indels and substitutions are cataloged relative to the breaksite. To more clearly differentiate between MMEJ and NHEJ in specific reads, we utilized the CML cell line HAP1 and isogenic LIG4 and POLQ deleted HAP1 cell lines created through CRISPR/Cas9 editing. […] Conversely, deletions larger than 5 bp are enhanced in absence of LIG4, but suppressed by POLQ loss. […]

MMEJ = assay: DSBR-ddPCR with MMEJ probe; settings: FIG. 5D-E
293T and U2OS cells = assay: DSBR-seq at additional genomic loci (Example 5, planned); settings: new loci, expected outcome

CC(=O)c1c(C)c2cnc(Nc3ccc(N4CCNCC4)cn3)nc2n(C2CCCC2)c1=O [palbociclib]
cell cycle effect (HAP1 cells): arrested in G1; also recorded: G1 arrest
size of deletion (HAP1 cells; FIG. 1C-D): decreases
1 bp deletion read (HAP1 cells; G1 arrest by the drug): increase
12 bp deletion / 5 bp microhomology (MMEJ) reads (HAP1 cells; G1 arrest by the drug): highly suppressed; also recorded: suppress
HR usage (HAP1 cells; G1 arrest by the drug): suppressed; also recorded: suppressing
MMEJ usage (HAP1 cells; G1 arrest by the drug): suppressed; also recorded: suppressing
overall error-prone NHEJ (HAP1 cells; G1 arrest by the drug): increased
MMEJ by DSBR-ddPCR (MMEJ): decreased
frequency of reads assigned to MMEJ (293T and U2OS cells): suppressed
frequency of reads assigned to NHEJ (293T and U2OS cells): may increase

Source: patent US20210246505A1, “COMPOSITIONS & METHODS FOR MONITORING DNA REPAIR” (MEMORIAL SLOAN KETTERING CANCER CENTER, priority 2018, published 2021)
